Assay results from US20040072230A1, “Human SORBS1 genetic variations contribute to insulin resistance, obesity, type 2 diabetes, and hypertension” (priority 2002, published 2004).
For at least one compound, name, drawing or mass did not settle the structure.

Columns and labels:
CAP/ponsin = conditions: adipose tissues; cited from earlier work
adipoQ = adipoQ gene expression, 3T3-L1 adipocyte differentiation (mRNA differential display / Northern blot); type: cell-based, murine; conditions: 3T3-L1 cells; gene inversely correlated with body mass

CN(CCOc1ccc(CC2SC(=O)NC2=O)cc1)c1ccccn1 (centres unmarked) [BRL49653, rosiglitazone]
CAP/ponsin expression (CAP/ponsin): enhanced
adipoQ expression (adipoQ): up-regulated
